# Experimental data as given in paper PMC7819943, “Rice protein-binding microarrays: a tool to detect cis-acting elements near promoter regions in rice”.
# The other results are listed elsewhere or left out.
# Biological target: T1, OsSMF1 (Oryza sativa, UniProt Q6ZLB0 1-436)
# T1 sequence: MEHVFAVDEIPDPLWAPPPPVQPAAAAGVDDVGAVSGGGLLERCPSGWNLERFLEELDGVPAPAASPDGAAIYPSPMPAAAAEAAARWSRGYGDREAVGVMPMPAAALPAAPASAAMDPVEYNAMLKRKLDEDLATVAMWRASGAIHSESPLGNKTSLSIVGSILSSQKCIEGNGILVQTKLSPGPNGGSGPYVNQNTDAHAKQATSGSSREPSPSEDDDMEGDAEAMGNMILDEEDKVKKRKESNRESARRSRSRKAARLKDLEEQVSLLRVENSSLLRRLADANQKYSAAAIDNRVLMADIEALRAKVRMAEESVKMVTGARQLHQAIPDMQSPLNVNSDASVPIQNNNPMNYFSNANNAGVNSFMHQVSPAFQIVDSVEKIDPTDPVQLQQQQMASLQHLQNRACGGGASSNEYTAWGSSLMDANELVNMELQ
# Experiment: protein-binding microarray (RPBM); PBS, 2% BSA, 51.3 ng/ul salmon testes DNA, 50 uM zinc acetate, 200 nM TF, 25 C, 1 h; high values mean tight binding
# Conditions: protein: recombinant; tags: N-terminal polyhistidine and DsRed monomer fusion (pET32a); chain copies: 2; label: CyDye5-dUTP incorporated in the synthesized complementary strand; 3' TTTTT single-stranded linker to array surface; dsDNA, one strand shown
# In short: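 Binding signal is reported as fluorescence intensity per feature (arbitrary units) from an Axon 4000B scanner. Incubation used 200 nM of each Ni–NTA-purified, N-terminally polyhistidine- and DsRed-fused transcription factor from E. coli BL21-CodonPlus on a double-stranded custom Agilent array for 1 h at 25 °C, with 50 µM zinc acetate in the buffer, followed by washing.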
row,Sequence,binding signal
1,AACTCTGATACGATGTGATATGCTGGATCGGGGAGGGGCGCGGAGTCACCTAGTGCAG,4350 fluorescence intensity (a.u.)
2,TTATCGTTTGCAGCTTTATCATTTCAGTTCTGTTTTCAAGCGGAGTCACCTAGTGCAG,27800 fluorescence intensity (a.u.)
3,GCTTGTTGCTAGCTAGTACGTGTACGCCAAGGCCAAGACGCGGAGTCACCTAGTGCAG,3360 fluorescence intensity (a.u.)
4,TTTCTCTCACCTCTACGTCACTGCTACAGTTGATATGAAACGGAGTCACCTAGTGCAG,3620 fluorescence intensity (a.u.)
5,CAGTGAGAAATAGTATTGAGCGTCAGCACAACAGAATGCACGGAGTCACCTAGTGCAG,4170 fluorescence intensity (a.u.)
6,ATGCGTGATGACTGATGAGTGACAACAACTAGTTGCCCTCCGGAGTCACCTAGTGCAG,5860 fluorescence intensity (a.u.)
7,AACTTCTTTGTACCTACAAGTCACACCACACATGTTTGAACGGAGTCACCTAGTGCAG,3430 fluorescence intensity (a.u.)
8,GAAATGCTCGATCAGAACAAGTATTAGTCAGCAGATACAACGGAGTCACCTAGTGCAG,5400 fluorescence intensity (a.u.)
9,AAGAGGACAGTTGGGCCCACATGTCAGCGGCATCCACGACCGGAGTCACCTAGTGCAG,3570 fluorescence intensity (a.u.)
10,GTGGGCGAAGTTGGTCGGCGTGGCAGCGCGCGACCGCGTCCGGAGTCACCTAGTGCAG,3980 fluorescence intensity (a.u.)
11,GGTTGCTGTGGTTGGCGAGGTGGGGTGGGGCTTGGAGTAACGGAGTCACCTAGTGCAG,5230 fluorescence intensity (a.u.)
12,AGTTGGTGATCACATTGATGATTATTCCTTATAGATTACACGGAGTCACCTAGTGCAG,3480 fluorescence intensity (a.u.)
13,CTCAGCGACCCAAAACCACCTCACCAACCCAACTCTGTACCGGAGTCACCTAGTGCAG,3890 fluorescence intensity (a.u.)
14,CAAAGCGGAGAGTTACATCACGCTAAAGAGTTCGCTTCCACGGAGTCACCTAGTGCAG,3250 fluorescence intensity (a.u.)
15,ACACTGTGTGACATGCGTGCATATCTGCCACACATACACACGGAGTCACCTAGTGCAG,3300 fluorescence intensity (a.u.)
16,AATCAAAGTTGGGCACGGAAAATCATGGCCACTTAAAATGCGGAGTCACCTAGTGCAG,3340 fluorescence intensity (a.u.)
17,TATTCTGCACAACACTCTGAATCACTCATCACTCACTAGTCGGAGTCACCTAGTGCAG,3290 fluorescence intensity (a.u.)
18,GGGCCTTACCTCGTGGAGGCGTGGAGCTGGCCCTTGCCGCCGGAGTCACCTAGTGCAG,4660 fluorescence intensity (a.u.)
19,GCTTTCTTGTCAAAACAGATCATGCCTTTTGTTTGTTCCACGGAGTCACCTAGTGCAG,3330 fluorescence intensity (a.u.)
20,TTAGCTGGGATGAATTGGGAATGGCTGATGATTCATTGCTCGGAGTCACCTAGTGCAG,3790 fluorescence intensity (a.u.)
21,GTCGAGTTGCCTACTCGCCGCCGCGTGGCCCGCCTGCCTCCGGAGTCACCTAGTGCAG,6100 fluorescence intensity (a.u.)

# 3 entries picked at random from those above:
row,Sequence,binding signal
16,AATCAAAGTTGGGCACGGAAAATCATGGCCACTTAAAATGCGGAGTCACCTAGTGCAG,3340 fluorescence intensity (a.u.)
21,GTCGAGTTGCCTACTCGCCGCCGCGTGGCCCGCCTGCCTCCGGAGTCACCTAGTGCAG,6100 fluorescence intensity (a.u.)
14,CAAAGCGGAGAGTTACATCACGCTAAAGAGTTCGCTTCCACGGAGTCACCTAGTGCAG,3250 fluorescence intensity (a.u.)

# The list continues:

row,Sequence,binding signal
1,ATCCTAAGAAGTGAGAACTCTAATGCTAGGTTTGGAATACCGGAGTCACCTAGTGCAG,4700 fluorescence intensity (a.u.)
2,GCAGCATAGTTAGCTTTATATCTGTTTTACGTCATCACCACGGAGTCACCTAGTGCAG,6330 fluorescence intensity (a.u.)
3,AATTCGTCCTCGACTCGTCTTCGTCTTCGCCTCGTCGTCCCGGAGTCACCTAGTGCAG,3440 fluorescence intensity (a.u.)
4,CAAAAGCAGCAGCGTGGGTAGCGTTGCGCGCGTGACCTGGCGGAGTCACCTAGTGCAG,4030 fluorescence intensity (a.u.)
5,AAATGGGGAGGAGTGCGGATGACATGTGGGTCCCACAAATCGGAGTCACCTAGTGCAG,3900 fluorescence intensity (a.u.)
6,ATCAGTACCGTCCACGCAGCCGTGACAGCAACAGAAAGACCGGAGTCACCTAGTGCAG,3200 fluorescence intensity (a.u.)
7,CAATCATCAGCCACGTCCGCCGCCGCTTCAGCTGGATCGGCGGAGTCACCTAGTGCAG,4290 fluorescence intensity (a.u.)
8,AATCATCGGCCAAAATTACCCGCGTGGCATTAGAGTCATGCGGAGTCACCTAGTGCAG,5590 fluorescence intensity (a.u.)
9,CCTTATTTCTTGCTCCTGACTCAATCGCCTCCACCGACCACGGAGTCACCTAGTGCAG,5210 fluorescence intensity (a.u.)
10,AAGCTCACACAAATCTGATCTGTCACCACGGATAAAGATCCGGAGTCACCTAGTGCAG,3300 fluorescence intensity (a.u.)
11,TTCCTCCCGGGTTTCGAGGGCGTCAGCAACCCGGGCGCCGCGGAGTCACCTAGTGCAG,3380 fluorescence intensity (a.u.)
12,AAGTATCTGGCGTGGCATACCAGTATTGCCATGCTAGCTACGGAGTCACCTAGTGCAG,10300 fluorescence intensity (a.u.)
13,ACCACGCGACGCGCTCGCTCGCTCTCTTCCCGCACGTGTTCGGAGTCACCTAGTGCAG,3470 fluorescence intensity (a.u.)
14,TTGTGTGGTGTGGTTGAGCTGAGGTGTAGTTAGGACAGTGCGGAGTCACCTAGTGCAG,3210 fluorescence intensity (a.u.)
15,AAGGAGTAGCTTTGAAATTCAACTTTCAGATACACGTCAACGGAGTCACCTAGTGCAG,4600 fluorescence intensity (a.u.)
16,AGTATTGAATATGACACGTCCTAGGACTACTAATCTGGACCGGAGTCACCTAGTGCAG,6340 fluorescence intensity (a.u.)
17,CGCAAAACGCCAGCACAGTCGCAGTACAAATAAAGCTTTACGGAGTCACCTAGTGCAG,3980 fluorescence intensity (a.u.)
18,CCAGCACGGCACGGCACGCCGACGGCACGGCCCACTAGGGCGGAGTCACCTAGTGCAG,3940 fluorescence intensity (a.u.)
19,ATGATGGTGGTGACGACTTAGCTATCTTGAAACCTGAAACCGGAGTCACCTAGTGCAG,3220 fluorescence intensity (a.u.)
20,TTTCTTCGTAGTGTAGATGCAAAAGGCATTAAGTGTTTGCCGGAGTCACCTAGTGCAG,3280 fluorescence intensity (a.u.)
21,GAAATTCATGATGTGTCAACCTAACCCTAATAGGCTACTTCGGAGTCACCTAGTGCAG,4780 fluorescence intensity (a.u.)
